Measured values from publication PMC11192891.
These are yes or no findings as the source states them, for the method shown. In cells and extracts the contact can be indirect. Some entries that bind do so weakly or less than the wild type.

Protein sequences, listed by entry. Tags and fused reporters are not part of them. Residues count along the entry.
HA-JAK1-JH2 (JAK1 JH2 pseudokinase domain) (P23458, residues 545-855): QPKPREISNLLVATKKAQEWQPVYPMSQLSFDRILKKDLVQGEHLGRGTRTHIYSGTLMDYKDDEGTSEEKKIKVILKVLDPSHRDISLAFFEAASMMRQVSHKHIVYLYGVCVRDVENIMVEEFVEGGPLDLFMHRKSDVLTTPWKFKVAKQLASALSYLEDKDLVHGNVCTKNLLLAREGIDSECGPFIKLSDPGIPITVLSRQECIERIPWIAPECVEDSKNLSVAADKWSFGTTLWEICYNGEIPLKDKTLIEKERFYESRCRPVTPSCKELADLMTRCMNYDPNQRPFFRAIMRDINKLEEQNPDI
Flag-JAK1-JH1 (JAK1 JH1 tyrosine kinase domain) (P23458, residues 856-1154): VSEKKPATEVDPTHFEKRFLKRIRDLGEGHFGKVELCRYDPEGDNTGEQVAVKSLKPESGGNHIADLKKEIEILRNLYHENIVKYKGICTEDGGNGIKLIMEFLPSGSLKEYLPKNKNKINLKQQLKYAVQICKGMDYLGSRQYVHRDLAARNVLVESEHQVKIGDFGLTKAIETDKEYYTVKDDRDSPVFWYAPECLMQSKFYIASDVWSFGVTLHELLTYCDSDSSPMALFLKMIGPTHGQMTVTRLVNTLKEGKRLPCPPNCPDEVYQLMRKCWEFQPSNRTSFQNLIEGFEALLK

Molecular target: Flag-JAK1-JH1 (JAK1 JH1 tyrosine kinase domain) (human) (UniProt P23458)
Assay: co-IP; Flag-IP (anti-Flag agarose beads) from 1 mg lysate of HEK293T cells transfected with the indicated constructs, 3-4 h at 4 °C, washed three times with NETN buffer (20 mM Tris pH 8.0, 100 mM NaCl, 1 mM EDTA, 0.5% NP-40), immunoblot; cells with or without SN-38 (1 μM, 24 h)

binding: binds
Substance: HA-JAK1-JH2 (JAK1 JH2 pseudokinase domain) (from UniProt P23458 545-855) (domain or fragment)
